In publication PMC13249469, “High-throughput ligand diversification to discover chemical inducers of proximity” (Nature Chemical Biology, 2026) one finds binding data, which are given here for one molecule.

This test addresses Hpep6–BRD4(S) N140F (BD1 mutant) (UniProt O60885). Put plainly: split reporter; splitHaloTag in RPE1 cells with FBXO3–EGFP–cpHalo and Hpep6–BRD4s; carfilzomib pretreatment (1 h), then dHTC3 with 100 nM TAMRA-CA for 3 h; flow cytometry, TAMRA/GFP ratio normalised to DMSO.

No constants are given. Whether binding was seen depends on the method and setting. In cells and extracts the contact can be indirect. Sequences can lack the tags named with a protein.

B1: FBXO3–EGFP–cpHalo (protein, UniProt Q9UK99 1-471)
chain: MAAMETETAPLTLESLPTDPLLLILSFLDYRDLINCCYVSRRLSQLSSHDPLWRRHCKKYWLISEEEKTQKNQCWKSLFIDTYSDVGRYIDHYAAIKKAWDDLKKYLEPRCPRMVLSLKEGAREEDLDAVEAQIGCKLPDDYRCSYRIHNGQKLVVPGLLGSMALSNHYRSEDLLDVDTAAGGFQQRQGLKYCLPLTFCIHTGLSQYIAVEAAEGRNKNEVFYQCPDQMARNPAAIDMFIIGATFTDWFTSYVKNVVSGGFPIIRDQIFRYVHDPECVATTGDITVSVSTSFLPELSSVHPPHYFFTYRIRIEMSKDALPEKACQLDSRYWRITNAKGDVEEVQGPGVVGEFPIISPGRVYEYTSCTTFSTTSGYMEGYYTFHFLYFKDKIFNVAIPRFHMACPTFRVSIARLEMGPDEYEEMEEEEEEEEEEDEDDDSADMDESDEDDEEERRRRVFDVPIRRRRCSRLF
With B1, the binding entry was “no binding (tested: 2 µM dHTC3)”.
